Measurements as given in PubChem BioAssay AID1224858 (National Center for Advancing Translational Sciences (NCATS), 2016).
Inconclusive results, whose numbers are uncertain, are shown with a selection of clear calls. A potency beside an inconclusive call is a rough fit, not a confirmed value. Active and inactive are the calls of the source. The call rests on the fitted dose curve; in most records, active means well fitted inhibition curve with a large enough effect; inconclusive means small, poorly fitted or top-dose-only effect; inactive means no such curve, though single readings can be large or run the other way.

Assay: Confirmation assay for measurement of the activity of small molecule inhibitors on Zika virus induced Caspase-3 activity in human astrocytes
Conditions: ZIKV-induced caspase-3/7 luminescence, 6 h; series mostly up to 46.1 µM; activity, negative = inhibition: at the top concentration
Excerpt: National Center for Advancing Translational Sciences [NCATS] Johns Hopkins University School of Medicine Florida State University Assay Overview: Increase in the Caspase-3 activity indicates an activation of apoptosis cell death pathway caused by Zika virus infection in certain types of neuronal cells including human neural progenitor cells (hNPCs), astrocytes, and astrocytoma cell line (SNB-19). This cell-based caspase-3 activity assay measures the increased caspase-3 activity in the human astrocytes after a 6-hour Zika virus infection with a luminescence readout. A decrease in the luminescence signal in this assay by small molecule treatment indicates an inhibitory effect of that small molecule on the Zika virus induced caspase-3 activity that may correlate with its effect on reduction of Zika virus caused cell death.
Assay Protocol Summary: The medium for astrocytes contains AM basal medium (ScienCell, Cat.# 1801), AGS (ScienCell, Cat.# 1801), 10% FBS, and 1% Pen/Strep. A Caspase-Glo 3/7 assay kit (catalog number G8092; Promega, Madison, WI) was used to detect caspase-3 activity induced by Zika virus infection in human cells. The reagent mixture was reconstituted as described in the protocol from the manufacturer. Polystyrene tissue culture treated and PDL coated white plates were obtained from Greiner Bio-One (Monroe, NC). Cells were seeded in 384- or 1536-well assay plates and cultured at 37 C with 5% CO2 for 16 to 20 hours. The typical cell seeding density in the 1536-well plate assay is 350 cells/well in 3 ul medium for astrocytes in tissue culture treated plates. Compounds were added to cells and incubated for one hour before addition of ZIKV solution to cells (2 FFU/cell). After incubation at 37 C with 5% CO2 for 6 hours, the reagent mixture of Caspase-Glo 3/7 assay kit was added to each well, followed by incubation at room temperature for 30 minutes. The luminescence intensity of the assay plates was measured using a ViewLux plate reader (PerkinElmer). Data were normalized by using the cell-containing wells without ZIKV as a negative control (0% induction of caspase 3/7 activity) and wells containing ZIKV infected cells (Caspase-3 activity induced) as a positive control (100% induction of caspase 3 activity). The percentage inhibitions of the increased Caspase-3 activity by small molecule inhibitors were then calculated.

Compound | activity, negative = inhibition | Potency
COc1ccnc2c1CCCCC2S(=O)c1nc2ccccc2[nH]1 (stereo not given) | inactive: 54% | 
COc1cccc(-c2ccc(NC(=O)C3=C(C(=O)O)CCC3)c(F)c2)c1 |  | active: 2.45 µM
O=c1c2ccccc2nc2n1CCc1c-2[nH]c2ccccc12 |  | active: 4.89 µM
CCCSc1ccc2nc(NC(=O)OC)[nH]c2c1 |  | inconclusive: 13.8 µM [inhibitor, partial curve]
O=C(O)Cc1ccc(-c2ccccc2)cc1 |  | inconclusive: 17.3 µM [inhibitor, single point]
O=C(O)c1ccccc1NCCc1ccccc1 |  | inconclusive: 21.8 µM [inhibitor, single point]
C=C1C(=O)[C@@]23C(CC[C@@H]1[C@H]2O)[C@@]12CO[C@]3(O)[C@@H](O)[C@@H]1C(C)(C)CC[C@@H]2O (stereo not given in full) |  | inconclusive: 17.3 µM [inhibitor, single point]
O=c1c(-c2ccc(O)cc2)coc2cc(O)ccc12 |  | inconclusive: 21.8 µM [inhibitor, partial curve, poor fit]
CCN1CCC(n2cc(CNc3cc(Cl)c4ncc(C#N)c(Nc5ccc(F)c(Cl)c5)c4c3)nn2)CC1 | inactive: -8.22% | 
CC(C(=O)O)c1ccc(C(=O)c2cccs2)cc1 (stereo not given) |  | inconclusive: 15.5 µM [inhibitor, partial curve, poor fit]
CC(C(=O)O)c1ccc2c(c1)[nH]c1ccc(Cl)cc12 (stereo not given) |  | inconclusive: 19.5 µM [inhibitor, single point]
CCCCCCCCCCCC(=O)[O][Sn]([CH2]CCC)([CH2]CCC)[O]C(=O)CCCCCCCCCCC | inactive: -15% | 
O=C1c2ccccc2C(=O)c2c(NCCc3ccc(O)cc3)ccc(NCCc3ccc(O)cc3)c21 |  | inconclusive: 21.8 µM [inhibitor, partial curve, poor fit]
O=C1C[C@@H](c2ccc(O)cc2)Oc2cc(O)cc(O)c21 |  | inconclusive: 17.3 µM [inhibitor, partial curve]
CCOC1OC(=O)C[C@H]1NC(=O)[C@@H]1CCCN1C(=O)[C@@H](NC(=O)c1ccc(N)c(Cl)c1)C(C)(C)C (stereo not given in full) |  | inconclusive: 12.3 µM [inhibitor, partial curve]
N#CC1(c2ccc(NC(=O)c3cccnc3NCc3ccncc3)cc2)CCCC1 |  | inconclusive: 17.3 µM [inhibitor, single point]
CN(C)CCCSc1ccccc1NC(=O)/C=C/c1ccccc1 |  | active: 13.8 µM
COc1ccc(-c2cc(=S)ss2)cc1 |  | inconclusive: 15.5 µM [inhibitor, partial curve]
Cc1csc(NC(=O)c2sc3nc4c(c(C(F)(F)F)c3c2N)CCC4)n1 |  | inconclusive: 12.3 µM [inhibitor, partial curve]
Nc1nc2ccc([N+](=O)[O-])cc2s1 |  | inconclusive: 35.5 µM [inhibitor, single point]

3 entries drawn at random from the list so far, as already listed:
Compound | activity, negative = inhibition | Potency
O=c1c(-c2ccc(O)cc2)coc2cc(O)ccc12 |  | inconclusive: 21.8 µM [inhibitor, partial curve, poor fit]
COc1ccnc2c1CCCCC2S(=O)c1nc2ccccc2[nH]1 (stereo not given) | inactive: 54% | 
Cc1csc(NC(=O)c2sc3nc4c(c(C(F)(F)F)c3c2N)CCC4)n1 |  | inconclusive: 12.3 µM [inhibitor, partial curve]

Following part.

Compound | activity, negative = inhibition | Potency
O=C(c1ccccc1)c1ccc2n1CCC2C(=O)O (stereo not given) |  | inconclusive: 21.8 µM [inhibitor, single point]
CN(C)c1ccc2cc(C(=O)N[C@@H](CCCN=C(N)CCl)C(=O)NCc3ccccc3)ccc2c1 | inactive: -11.3% | 
O=C(O)CCC(=O)c1ccc(-c2ccccc2)cc1 |  | active: 19.5 µM
O=c1c(-c2ccc(O)cc2)coc2cc(OC3O[C@H](CO)[C@H](O)[C@H](O)[C@H]3O)cc(O)c12 (stereo not given in full) |  | inconclusive: 21.8 µM [inhibitor, single point]
COc1cccc(-c2cc(=O)c3ccccc3o2)c1N |  | active: 6.9 µM
COc1cccc2c1C(=O)c1c(O)c3c(c(O)c1C2=O)C[C@@](O)(C(=O)CO)C[C@@H]3O[C@H]1C[C@H](N)[C@H](O[C@@H]2CCCCO2)[C@H](C)O1 |  | inconclusive: 13.8 µM [inhibitor, partial curve]
Nc1c(S(=O)(=O)O)cc(Nc2ccc(Nc3nc(Cl)nc(Nc4ccc(S(=O)(=O)O)cc4)n3)c(S(=O)(=O)O)c2)c2c1C(=O)c1ccccc1C2=O |  | inconclusive: 15.5 µM [inhibitor, partial curve]
OCc1ccc(-c2ccc(-c3ccc(CO)s3)o2)s1 |  | inconclusive: 27.5 µM [inhibitor, single point]
Cc1nc(N)sc1-c1ccnc(Nc2ccc(N3CCOCC3)cc2)n1 | inactive: -7.98% | 
Cc1ccc(C(=O)c2ccc(CC(=O)O)n2C)cc1 | inactive: -0.261% | 
O=C(C=CC=Cc1ccc2c(c1)OCO2)N1CCCCC1 |  | inconclusive: 21.8 µM [inhibitor, partial curve]
C=CCCCCCCCCC(=O)O |  | inconclusive: 21.8 µM [inhibitor, single point]
CN(C)c1ccc(C(=C2C=CC(=[N+](C)C)C=C2)c2ccccc2)cc1 |  | inconclusive: 17.3 µM [inhibitor, partial curve, poor fit]
COc1cc2nc(-c3ccc(N4CCN(C)CC4)cc3)nc(NCCN3CCOCC3)c2cc1OC | inactive: -9.03% | 
COc1ccc2nc(NC(=O)Nc3ccccc3)sc2c1 |  | inconclusive: 19.5 µM [inhibitor, partial curve, poor fit]
CC(=O)Oc1cccc2c1C(=O)c1c(OC(C)=O)cc(C(=O)O)cc1C2=O |  | active: 15.5 µM
CN1CCN(c2cc3c(nn2)Oc2ccccc2N3C)CC1 |  | inconclusive: 9.5 µM [inhibitor, single point]
CCCCCNC(=O)N1CCC(CN(Cc2ccc(Cl)cc2)Cc2ccc([N+](=O)[O-])s2)C1 (stereo not given) | inactive: 17.4% | 
CCC(C)SSc1ncc[nH]1 (stereo not given) |  | inconclusive: 19.5 µM [inhibitor, single point]
CN1CC(=O)N/C1=N/C(=O)Nc1cccc(Cl)c1 |  | active: 10.9 µM
